The supplement of paper PMC10849652
The other results are listed elsewhere or left out. Residues, ends and D or L forms follow the SMILES beside them. *: point of attachment. Cbz = O=C(OCc1ccccc1)*

Chains of the proteins cited; added tags and fusions are not shown. Lines headed by an entry give the natural chain unless they say otherwise; changes in a name come on top.
UniProt P18065: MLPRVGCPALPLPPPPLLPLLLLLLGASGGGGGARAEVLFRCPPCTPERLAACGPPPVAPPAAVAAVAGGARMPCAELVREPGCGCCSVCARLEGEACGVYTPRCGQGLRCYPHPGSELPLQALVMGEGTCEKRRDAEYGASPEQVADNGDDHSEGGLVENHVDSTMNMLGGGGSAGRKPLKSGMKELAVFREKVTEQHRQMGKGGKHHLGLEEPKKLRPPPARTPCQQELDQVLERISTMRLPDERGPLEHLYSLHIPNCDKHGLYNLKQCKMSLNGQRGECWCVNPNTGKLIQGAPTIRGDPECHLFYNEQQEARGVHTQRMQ
UniProt Q16891: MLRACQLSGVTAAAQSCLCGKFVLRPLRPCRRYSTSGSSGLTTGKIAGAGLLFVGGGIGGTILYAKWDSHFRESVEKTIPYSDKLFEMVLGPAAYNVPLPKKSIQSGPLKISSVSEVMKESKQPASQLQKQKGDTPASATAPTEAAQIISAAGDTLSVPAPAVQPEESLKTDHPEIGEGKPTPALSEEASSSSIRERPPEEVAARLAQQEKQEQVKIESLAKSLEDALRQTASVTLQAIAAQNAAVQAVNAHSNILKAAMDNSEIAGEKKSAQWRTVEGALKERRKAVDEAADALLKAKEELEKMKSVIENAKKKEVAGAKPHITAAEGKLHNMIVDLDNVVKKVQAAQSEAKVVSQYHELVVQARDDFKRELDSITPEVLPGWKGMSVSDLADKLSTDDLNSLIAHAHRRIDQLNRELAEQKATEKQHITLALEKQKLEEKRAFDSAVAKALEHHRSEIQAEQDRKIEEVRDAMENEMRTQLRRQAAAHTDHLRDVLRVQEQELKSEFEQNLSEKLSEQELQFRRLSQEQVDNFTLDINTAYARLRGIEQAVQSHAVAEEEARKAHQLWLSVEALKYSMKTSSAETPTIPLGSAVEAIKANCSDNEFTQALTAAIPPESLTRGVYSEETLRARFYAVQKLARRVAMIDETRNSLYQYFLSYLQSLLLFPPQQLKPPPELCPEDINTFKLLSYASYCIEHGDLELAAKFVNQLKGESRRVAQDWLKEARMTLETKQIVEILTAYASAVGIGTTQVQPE
UniProt Q969P0: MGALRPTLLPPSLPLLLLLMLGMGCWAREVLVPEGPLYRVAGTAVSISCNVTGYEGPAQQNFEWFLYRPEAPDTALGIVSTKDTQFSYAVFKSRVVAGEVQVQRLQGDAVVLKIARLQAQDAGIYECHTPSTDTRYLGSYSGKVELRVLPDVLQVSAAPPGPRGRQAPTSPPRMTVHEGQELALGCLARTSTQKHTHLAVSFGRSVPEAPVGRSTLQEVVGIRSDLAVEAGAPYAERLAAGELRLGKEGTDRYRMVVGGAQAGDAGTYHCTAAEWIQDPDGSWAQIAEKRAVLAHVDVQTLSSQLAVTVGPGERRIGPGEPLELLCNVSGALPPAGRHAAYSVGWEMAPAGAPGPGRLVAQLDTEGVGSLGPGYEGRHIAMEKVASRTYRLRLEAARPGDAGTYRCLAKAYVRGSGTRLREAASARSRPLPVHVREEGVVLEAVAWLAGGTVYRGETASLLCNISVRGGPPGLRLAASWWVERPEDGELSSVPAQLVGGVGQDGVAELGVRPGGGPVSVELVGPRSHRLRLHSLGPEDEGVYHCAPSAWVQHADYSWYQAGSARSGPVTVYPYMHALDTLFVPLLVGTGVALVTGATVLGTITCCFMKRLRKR
UniProt Q96LU5: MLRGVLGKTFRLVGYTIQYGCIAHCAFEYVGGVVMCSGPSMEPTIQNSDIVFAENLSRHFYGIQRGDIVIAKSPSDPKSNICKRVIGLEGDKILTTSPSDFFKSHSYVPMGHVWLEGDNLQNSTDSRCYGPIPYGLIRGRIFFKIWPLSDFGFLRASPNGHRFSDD
UniProt O15397, whole entry, looked up: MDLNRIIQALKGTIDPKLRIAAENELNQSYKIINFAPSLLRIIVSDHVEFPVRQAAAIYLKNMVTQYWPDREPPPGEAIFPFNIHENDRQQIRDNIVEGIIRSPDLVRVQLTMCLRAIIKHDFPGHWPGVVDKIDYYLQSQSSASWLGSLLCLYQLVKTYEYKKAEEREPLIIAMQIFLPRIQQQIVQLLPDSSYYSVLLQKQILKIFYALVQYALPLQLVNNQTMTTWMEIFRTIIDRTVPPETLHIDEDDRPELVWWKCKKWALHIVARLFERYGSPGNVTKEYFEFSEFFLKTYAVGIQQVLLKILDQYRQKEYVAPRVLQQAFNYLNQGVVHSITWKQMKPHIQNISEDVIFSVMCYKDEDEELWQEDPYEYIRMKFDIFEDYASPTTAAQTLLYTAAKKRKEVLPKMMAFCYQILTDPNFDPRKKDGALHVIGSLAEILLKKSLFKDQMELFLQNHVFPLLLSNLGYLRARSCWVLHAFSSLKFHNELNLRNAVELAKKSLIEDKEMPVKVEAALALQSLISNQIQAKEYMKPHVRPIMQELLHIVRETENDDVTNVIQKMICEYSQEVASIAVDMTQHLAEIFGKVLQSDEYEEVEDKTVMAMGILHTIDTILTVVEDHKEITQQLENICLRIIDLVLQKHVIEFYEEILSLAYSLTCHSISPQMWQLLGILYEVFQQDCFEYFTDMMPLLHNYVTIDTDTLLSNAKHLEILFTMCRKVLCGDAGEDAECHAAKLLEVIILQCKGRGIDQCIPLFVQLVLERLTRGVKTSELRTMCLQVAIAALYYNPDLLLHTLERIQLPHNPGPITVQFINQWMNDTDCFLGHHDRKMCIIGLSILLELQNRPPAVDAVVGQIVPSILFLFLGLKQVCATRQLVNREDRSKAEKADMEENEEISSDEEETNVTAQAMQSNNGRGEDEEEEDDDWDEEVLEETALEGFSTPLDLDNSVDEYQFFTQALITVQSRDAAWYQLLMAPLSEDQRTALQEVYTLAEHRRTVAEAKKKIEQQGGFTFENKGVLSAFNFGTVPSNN
UniProt Q14653: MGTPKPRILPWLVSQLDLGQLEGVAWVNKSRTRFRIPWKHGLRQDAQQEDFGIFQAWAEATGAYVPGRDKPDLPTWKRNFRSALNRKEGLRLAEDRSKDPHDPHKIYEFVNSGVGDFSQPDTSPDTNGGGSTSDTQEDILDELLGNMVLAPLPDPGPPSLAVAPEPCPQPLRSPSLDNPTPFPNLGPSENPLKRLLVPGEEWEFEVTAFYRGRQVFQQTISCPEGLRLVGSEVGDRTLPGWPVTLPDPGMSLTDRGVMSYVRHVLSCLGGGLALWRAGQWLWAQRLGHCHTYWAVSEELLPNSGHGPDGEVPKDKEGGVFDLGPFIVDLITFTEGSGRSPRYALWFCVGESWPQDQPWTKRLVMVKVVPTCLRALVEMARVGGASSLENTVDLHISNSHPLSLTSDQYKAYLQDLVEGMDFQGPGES
UniProt Q14624: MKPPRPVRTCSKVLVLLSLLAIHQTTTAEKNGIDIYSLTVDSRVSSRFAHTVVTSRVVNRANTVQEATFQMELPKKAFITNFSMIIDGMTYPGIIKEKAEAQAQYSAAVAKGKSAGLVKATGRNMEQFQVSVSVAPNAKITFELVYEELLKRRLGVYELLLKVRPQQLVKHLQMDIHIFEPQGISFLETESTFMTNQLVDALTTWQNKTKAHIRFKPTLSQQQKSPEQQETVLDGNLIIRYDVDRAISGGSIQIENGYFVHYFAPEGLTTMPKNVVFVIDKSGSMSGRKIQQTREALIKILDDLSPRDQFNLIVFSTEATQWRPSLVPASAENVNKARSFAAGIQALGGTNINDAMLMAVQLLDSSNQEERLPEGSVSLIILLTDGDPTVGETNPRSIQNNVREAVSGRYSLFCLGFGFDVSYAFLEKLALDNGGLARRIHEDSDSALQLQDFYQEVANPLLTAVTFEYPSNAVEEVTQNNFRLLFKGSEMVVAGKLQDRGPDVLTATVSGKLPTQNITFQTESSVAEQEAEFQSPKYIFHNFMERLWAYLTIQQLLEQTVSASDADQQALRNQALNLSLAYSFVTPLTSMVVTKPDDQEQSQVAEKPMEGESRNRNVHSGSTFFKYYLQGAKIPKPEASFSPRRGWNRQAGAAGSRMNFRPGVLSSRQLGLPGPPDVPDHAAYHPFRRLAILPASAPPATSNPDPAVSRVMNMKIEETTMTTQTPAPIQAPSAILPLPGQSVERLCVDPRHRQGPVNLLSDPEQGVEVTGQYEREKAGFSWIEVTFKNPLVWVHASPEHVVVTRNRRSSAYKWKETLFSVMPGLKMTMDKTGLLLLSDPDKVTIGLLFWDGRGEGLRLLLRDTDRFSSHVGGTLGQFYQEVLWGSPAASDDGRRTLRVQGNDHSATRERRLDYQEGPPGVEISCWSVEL
UniProt Q96LB3: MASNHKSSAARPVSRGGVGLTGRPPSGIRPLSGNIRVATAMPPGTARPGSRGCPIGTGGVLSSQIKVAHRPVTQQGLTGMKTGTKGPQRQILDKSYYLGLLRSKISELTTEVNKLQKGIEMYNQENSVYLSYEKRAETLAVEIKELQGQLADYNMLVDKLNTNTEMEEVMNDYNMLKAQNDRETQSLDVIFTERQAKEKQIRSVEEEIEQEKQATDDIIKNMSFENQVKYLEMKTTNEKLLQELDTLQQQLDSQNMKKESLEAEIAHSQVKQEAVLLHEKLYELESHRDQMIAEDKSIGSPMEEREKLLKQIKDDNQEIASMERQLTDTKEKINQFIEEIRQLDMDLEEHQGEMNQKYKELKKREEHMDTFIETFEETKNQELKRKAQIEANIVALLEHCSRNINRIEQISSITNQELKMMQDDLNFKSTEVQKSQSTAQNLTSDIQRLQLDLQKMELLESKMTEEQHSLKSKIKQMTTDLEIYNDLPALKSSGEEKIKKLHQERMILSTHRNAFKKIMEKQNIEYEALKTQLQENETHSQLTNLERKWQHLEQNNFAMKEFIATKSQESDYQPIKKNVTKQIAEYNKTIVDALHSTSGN
UniProt Q13907: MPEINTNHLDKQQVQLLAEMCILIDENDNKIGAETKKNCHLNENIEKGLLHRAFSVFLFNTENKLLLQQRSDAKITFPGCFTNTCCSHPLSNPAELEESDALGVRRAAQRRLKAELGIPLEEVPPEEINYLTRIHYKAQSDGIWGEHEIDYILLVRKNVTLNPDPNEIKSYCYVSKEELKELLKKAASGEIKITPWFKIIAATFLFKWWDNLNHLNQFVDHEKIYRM
UniProt P22692: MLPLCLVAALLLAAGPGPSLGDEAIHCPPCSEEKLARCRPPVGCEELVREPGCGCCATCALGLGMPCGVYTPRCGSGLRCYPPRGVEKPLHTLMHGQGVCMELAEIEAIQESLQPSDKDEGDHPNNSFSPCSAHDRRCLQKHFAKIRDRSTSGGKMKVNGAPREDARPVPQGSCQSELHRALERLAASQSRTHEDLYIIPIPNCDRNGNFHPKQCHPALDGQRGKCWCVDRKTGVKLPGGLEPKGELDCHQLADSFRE
UniProt Q01628, whole entry, looked up: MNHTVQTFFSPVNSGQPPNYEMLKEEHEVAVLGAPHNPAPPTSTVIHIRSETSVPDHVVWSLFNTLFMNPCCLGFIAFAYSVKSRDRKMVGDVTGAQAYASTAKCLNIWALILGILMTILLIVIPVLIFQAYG
UniProt P32019: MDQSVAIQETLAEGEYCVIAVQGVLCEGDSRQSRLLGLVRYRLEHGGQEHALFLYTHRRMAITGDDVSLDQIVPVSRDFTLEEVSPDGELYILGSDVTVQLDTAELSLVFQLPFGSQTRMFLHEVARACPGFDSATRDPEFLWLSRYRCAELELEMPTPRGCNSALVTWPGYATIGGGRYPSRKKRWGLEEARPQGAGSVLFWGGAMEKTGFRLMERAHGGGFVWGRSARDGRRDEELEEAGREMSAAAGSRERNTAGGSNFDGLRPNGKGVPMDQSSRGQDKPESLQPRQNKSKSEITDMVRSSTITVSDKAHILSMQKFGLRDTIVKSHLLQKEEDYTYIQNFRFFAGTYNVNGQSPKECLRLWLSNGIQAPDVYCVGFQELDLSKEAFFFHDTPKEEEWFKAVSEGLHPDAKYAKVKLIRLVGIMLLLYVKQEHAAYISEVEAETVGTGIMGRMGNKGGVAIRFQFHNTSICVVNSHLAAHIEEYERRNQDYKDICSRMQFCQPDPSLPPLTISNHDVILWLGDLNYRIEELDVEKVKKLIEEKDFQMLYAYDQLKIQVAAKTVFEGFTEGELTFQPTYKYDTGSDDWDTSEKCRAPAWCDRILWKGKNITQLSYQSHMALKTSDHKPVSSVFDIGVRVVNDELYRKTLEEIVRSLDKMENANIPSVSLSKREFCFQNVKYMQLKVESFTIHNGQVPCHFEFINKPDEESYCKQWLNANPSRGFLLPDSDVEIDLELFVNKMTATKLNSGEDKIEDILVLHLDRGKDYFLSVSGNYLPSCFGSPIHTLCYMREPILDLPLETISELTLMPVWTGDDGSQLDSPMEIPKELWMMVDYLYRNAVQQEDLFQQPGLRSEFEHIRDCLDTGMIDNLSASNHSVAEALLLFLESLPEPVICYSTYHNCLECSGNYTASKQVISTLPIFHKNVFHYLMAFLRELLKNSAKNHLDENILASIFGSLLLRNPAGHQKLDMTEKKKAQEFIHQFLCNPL

Columns and labels:
Assay in all cases: log2 fold change, soluble protein after heating vs DMSO (PISA); higher = thermal stabilisation; K562 cells, 10 uM, 30 min; active = over 0.2 and 3.5 SD of the protein, either way, in both replicates (recomputed)
erlotinib = compound: C#Cc1cccc(Nc2ncnc3cc(OCCOC)c(OCCOC)cc23)c1 [erlotinib]
How it was run: (§1)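 Values are thermal stability changes relative to control samples and are taken from duplicates. They are stated as log2 fold changes. Before quantification by TMTpro 16plex LC-MS/MS with equalised channel sums, K562 cells at 2×10^6 cells/mL were treated with 10 μM compound for 30 min, heated in aliquots for 3 min across 48°C-58°C, pooled, extracted in PBS with 0.5% NP-40 at 4°C, and centrifuged at 21,000xg for 90 min to give the soluble supernatant.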

[1] = compound: C/C(=N\NC(=O)C1=CC(=CC=C1)S(=O)(=O)N2CCOCC2)/C3=C(C=CC(=C3)Cl)O
How it was run: as §1

[2] = compound: C1=CC(=C(C=C1Cl)C2=NC3=NC=CN=C3C(=N2)NC4=CC=NC=C4)F
How it was run: as §1

[3] = compound: C1=CC(=CC=C1C2=NC3=C(N2)C=C(C=C3)C(=O)N)OC4=CC=C(C=C4)Cl
How it was run: as §1

[4] = compound: C1=CC2=C(C=CC(=C2)/C=C\3/C(=O)NC(=NCC4=CC=CS4)S3)N=C1
How it was run: as §1

[5] = compound: C1=CC2=NC=CN=C2C=C1/C=C/3\C(=O)NC(=O)S3
How it was run: as §1

[6] = compound: C1=CC=C(C=C1)C2=NC(=C(N2)C3=CC=NC=C3)C4=CC(=C(C=C4)Cl)O
How it was run: as §1

[7] = compound: C1=CC=C2C(=C1)C3=NNC4=CC=CC(=C43)C2=O
How it was run: as §1

[8] = compound: C1CCN(C1)C(=O)NC2=CC=CC(=C2)NC3=NC=C(C(=N3)NCCC4=CN=CN4)Br
How it was run: as §1

[9] = compound: C1CN(CCC1(CC2=CC=C(C=C2)Cl)N)C3=NC=NC4=C3C=CN4
How it was run: as §1

IRAK-1-4 Inhibitor I = compound: C1COCCN1CCN2C3=CC=CC=C3N=C2NC(=O)C4=CC(=CC=C4)[N+](=O)[O-] [IRAK-1-4 Inhibitor I]
How it was run: as §1

ibrutinib = compound: C=CC(=O)N1CCC[C@@H](n2nc(-c3ccc(Oc4ccccc4)cc3)c3c(N)ncnc32)C1 [ibrutinib]
How it was run: as §1

[10] = compound: CC(=O)c1cnc2ccc(-c3cc(Cl)c(O)c(Cl)c3)nc2c1N[C@H]1CC[C@H](CN(C)C)CC1
How it was run: as §1

ralimetinib = compound: CC(C)(C)Cn1c(N)nc2ccc(-c3[nH]c(C(C)(C)C)nc3-c3ccc(F)cc3)nc21 [ralimetinib]
How it was run: as §1

[11] = compound: CC(C)(O)CC(=O)NCCn1ccc2ncnc(Nc3ccc(Oc4cccc(C(F)(F)F)c4)c(Cl)c3)c21
How it was run: as §1

[12] = compound: CC(C)C1=C2N=C(C=C(N2N=C1)NCC3=CC=CC=C3)NCCCCCCN
How it was run: as §1

[13] = compound: CC(C)C[C@@H](C=O)NC(=O)[C@H](CC(C)C)NC(=O)[C@H](CC(C)C)NC(=O)OCc1ccccc1
How it was run: as §1

pinometostat = compound: CC(C)N(C[C@H]1O[C@@H](n2cnc3c(N)ncnc32)[C@H](O)[C@@H]1O)[C@H]1C[C@@H](CCc2nc3cc(C(C)(C)C)ccc3[nH]2)C1 [pinometostat]
How it was run: as §1

[14] = compound: CC1=C(C(CC(=O)N1)C2=CC=C(C=C2)C(F)(F)F)C(=O)NC3=C(C=C4C(=C3)C=NN4)F
How it was run: as §1

[15] = compound: CC1=C(C2=C(C=C1)C(=O)C3=CC=CC=C3N2CCCN)C
How it was run: as §1

Row | Target | log2 fold change (erlotinib) | log2 fold change [1] | log2 fold change [2] | log2 fold change [3] | log2 fold change [4] | log2 fold change [5] | log2 fold change [6] | log2 fold change [7] | log2 fold change [8] | log2 fold change [9] | log2 fold change (IRAK-1-4 Inhibitor I) | log2 fold change (ibrutinib) | log2 fold change [10] | log2 fold change (ralimetinib) | log2 fold change [11] | log2 fold change [12] | log2 fold change [13] | log2 fold change (pinometostat) | log2 fold change [14] | log2 fold change [15]
1 | ITPK1 (UniProt Q13572) | inactive: -0.001 | inactive: 0.07 | inactive: -0.012 | inactive: 0.036 | inactive: -0.019 | inactive: 0.038 | inactive: 0.058 | inactive: 0.098 | inactive: 0.027 | inactive: -0.014 | inactive: -0.046 | inactive: -0.014 | inactive: 0.03 | inactive: 0.021 | inactive: 0.042 | inactive: 0.13 | inactive: -0.066 | inactive: 0.02 | inactive: -0.098 | inactive: 0.016
2 | IFT80 isoform 3 (UniProt Q9P2H3) | inactive: 0.04 | inactive: 0.071 | inactive: -0.04 | inactive: 0.013 | inactive: 0.042 | inactive: -0.011 | inactive: -0.066 | inactive: -0.229 | inactive: -0.013 | inactive: 0.042 | inactive: 0.03 | inactive: 0.099 | inactive: -0.073 | inactive: -0.02 | inactive: -0.118 | inactive: -0.113 | inactive: 0.072 | inactive: 0.049 |  | inactive: 0.073
3 | IGFBP2 (UniProt P18065) | inactive: -0.074 | inactive: -0.023 | inactive: -0.146 | inactive: 0.3 | inactive: 0.054 | inactive: 0.03 | inactive: 0.09 | inactive: -0.209 | inactive: 0.065 | inactive: 0.039 | inactive: 0.196 | inactive: 0.09 | inactive: 0.166 | inactive: -0.115 | inactive: -0.063 | inactive: -0.137 | inactive: 0.008 | inactive: -0.192 |  | inactive: -0.159
4 | IMMT isoform 4 (UniProt Q16891) | inactive: -0.027 | inactive: 0.026 | inactive: 0.057 | inactive: -0.006 | inactive: -0.021 | inactive: 0.011 | inactive: 0.012 | inactive: 0.001 | inactive: 0.012 | inactive: -0.013 | inactive: 0.037 | inactive: -0.005 | inactive: -0.015 | inactive: -0.044 | inactive: -0.035 | inactive: -0.179 | inactive: -0.013 | inactive: -0.013 |  | inactive: 0.01
5 | IGSF8 (UniProt Q969P0) | inactive: -0.013 | inactive: 0.011 | inactive: -0.046 | inactive: 0.065 | inactive: 0.038 | inactive: -0.014 | inactive: -0.077 | inactive: -0.054 | inactive: 0.124 | inactive: -0.088 | inactive: -0.001 | inactive: 0.11 | inactive: -0.094 | inactive: -0.087 | inactive: -0.074 | inactive: 0.19 | inactive: 0.168 | inactive: 0.029 |  | inactive: 0.213
6 | IMMT isoform 2 (UniProt Q16891) | inactive: -0.057 | inactive: 0.043 | inactive: 0.051 | inactive: -0.022 | inactive: -0.07 | inactive: -0.021 | inactive: -0.026 | inactive: 0.021 | inactive: 0.007 | inactive: 0.047 | inactive: 0.053 | inactive: -0.011 | inactive: 0.022 | inactive: 0.054 | inactive: 0.051 | inactive: 0.015 | inactive: -0.028 | inactive: 0.058 |  | inactive: -0.106
7 | IMMP1L (UniProt Q96LU5) | inactive: 0.053 | inactive: -0.018 | inactive: 0.01 | inactive: -0.017 | inactive: 0.104 | inactive: -0.022 | inactive: -0.084 | inactive: -0.046 | inactive: 0.041 | inactive: 0.013 | inactive: 0.006 | inactive: 0.043 | inactive: 0.002 | inactive: 0.031 | inactive: 0.03 | inactive: 0.026 | inactive: 0.112 | inactive: -0.033 |  | inactive: 0.199
8 | IPO8 (UniProt O15397) | inactive: 0.05 | inactive: -0.016 | inactive: -0.223 | inactive: -0.024 | inactive: 0.089 | inactive: -0.069 | inactive: -0.128 | inactive: 0.05 | inactive: -0.078 | inactive: -0.052 | inactive: -0.103 | inactive: -0.164 | inactive: -0.012 | inactive: 0.19 | inactive: 0 | inactive: -0.35 | inactive: 0.209 | inactive: 0.241 |  | inactive: 0.041
9 | IRF3 (UniProt Q14653) | inactive: 0.042 | inactive: 0.056 | inactive: 0.019 | inactive: -0.022 | inactive: 0.046 | inactive: -0.022 | inactive: -0.036 | inactive: 0 | inactive: -0.055 | inactive: -0.008 | inactive: 0.002 | inactive: 0.13 | inactive: -0.019 | inactive: -0.037 | inactive: 0 | inactive: -0.065 | inactive: -0.015 | inactive: -0.002 |  | inactive: 0.02
10 | ITIH4 (UniProt Q14624) | inactive: -0.026 | inactive: -0.072 | inactive: 0.029 | inactive: 0.091 | inactive: 0.143 | inactive: -0.039 | inactive: 0.061 | inactive: -0.06 | inactive: -0.009 | inactive: 0.079 | inactive: 0.043 | inactive: 0.147 | inactive: 0.041 | inactive: -0.044 | inactive: 0.17 | inactive: 0.045 | inactive: -0.113 | inactive: -0.117 |  | inactive: -0.148
11 | IFI30 (UniProt P13284) | inactive: 0.061 | inactive: 0.018 | inactive: -0.084 | inactive: 0.012 | inactive: -0.089 | inactive: 0.026 | inactive: 0.067 | inactive: 0.009 | inactive: -0.004 | inactive: 0.026 | inactive: 0.157 | inactive: 0.049 | inactive: 0.088 | inactive: -0.05 | inactive: 0.063 | inactive: 0.087 | inactive: -0.012 | inactive: 0.019 |  | inactive: -0.099
12 | IFT74 (UniProt Q96LB3) | inactive: 0.248 | active: -0.95 | inactive: 0.125 | inactive: -0.352 | inactive: 0.087 | inactive: -0.033 | inactive: 0.211 | inactive: -0.038 | inactive: -0.076 | inactive: 0.337 | inactive: 0.067 | inactive: 0.146 | inactive: 0.02 | inactive: 0.27 | inactive: -0.095 | inactive: 0.191 | inactive: 0.076 | inactive: -0.024 |  | inactive: 0.071
13 | IDI1 isoform 2 (UniProt Q13907) | inactive: 0.004 | active: -0.313 | inactive: 0.03 | inactive: -0.012 | inactive: -0.033 | inactive: -0.004 | inactive: -0.038 | inactive: 0.034 | inactive: -0.02 | inactive: 0.002 | inactive: 0.052 | inactive: 0.034 | inactive: -0.01 | inactive: -0.04 | inactive: 0.1 | inactive: 0.077 | inactive: -0.002 | inactive: -0.012 |  | inactive: -0.099
14 | IGFBP4 (UniProt P22692) | inactive: -0.03 | inactive: -0.14 | inactive: 0.023 | inactive: 0.093 | inactive: -0.124 | inactive: 0.178 | inactive: -0.051 | inactive: -0.217 | inactive: 0.108 | inactive: 0.076 | inactive: 0.011 | inactive: -0.015 | inactive: 0.171 | inactive: -0.04 | inactive: 0.047 | inactive: 0.028 | inactive: 0.054 | inactive: 0.032 |  | inactive: -0.09
15 | IFITM3 (UniProt Q01628) | inactive: -0.093 | inactive: -0.031 | active: -0.471 | inactive: 0.042 | inactive: -0.041 | inactive: 0.058 | inactive: 0.118 | inactive: -0.01 | inactive: -0.016 | inactive: -0.03 | inactive: -0.067 | inactive: -0.02 | inactive: -0.241 | inactive: 0.031 | inactive: 0.108 | inactive: -0.082 | inactive: 0.008 | inactive: -0.181 |  | inactive: 0.163
16 | INPP5B (UniProt P32019) | inactive: -0.027 | inactive: 0.056 | inactive: 0.071 | inactive: -0.052 | inactive: 0.055 | inactive: -0.018 | inactive: 0.026 | inactive: -0.04 | inactive: -0.064 | inactive: -0.039 | inactive: -0.1 | inactive: -0.048 | inactive: -0.013 | inactive: 0.062 | inactive: -0.053 | active: -0.308 | inactive: 0.122 | inactive: 0.101 |  | inactive: -0.077

Look-ups from the entries so far.
Value of IMMP1L (UniProt Q96LU5) under log2 fold change [2]: inactive: 0.01
Value of ITIH4 (UniProt Q14624) under log2 fold change [1]: inactive: -0.072
